Measurements reported in publication PMC5014167.
No constants are given. Whether binding was seen depends on the method and setting. In cells and extracts the contact can be indirect. For some of these results: Binding calls can cover weak binding; strength is not graded here. Tags and fused reporters may be left off the sequences shown.

How the values were obtained:
Test in all cases: co-IP; PES:Flag co-expressed with GFP fusions in N. benthamiana leaves by agroinfiltration; cell extracts immunoprecipitated with anti-GFP antibodies, co-precipitated PES:Flag detected by immunoblot with anti-Flag antibodies
[1] = biological target: GFP:∆NT (BOP1 lacking the N-terminal region including the BOP-NT domain) (Arabidopsis)
[2] = biological target: GFP:∆5WD (WDR12 lacking five C-terminal WD40 domains) (Arabidopsis)
[3] = biological target: GFP:∆6WD (BOP1 lacking the C-terminal region containing six WD40 domains) (Arabidopsis)
[4] = biological target: GFP:∆NLE (WDR12 lacking the NLE domain) (Arabidopsis)

- binding [1]: binds
- binding [2]: no binding
- binding [3]: no binding
- binding [4]: binds
B1: Flag-fused PES (PES:Flag) (protein, UniProt Q9LYK7 1-590)
chain: MPKHYRPTGKKKEGNAARYMTRSQALKHLQVNLNLFRRLCIVKGIFPREPKKKIKGNHHTYYHVKDIAFLMHEPLLEKFREIKTYQKKVKKAKAKKNEELARLLLTRQPTYKLDRLIRERYPTFIDALRDLDDCLTMVHLFAVLPASDRENLEVKRVHNCRRLTHEWQAYISRSHALRKVFVSVKGIYYQAEIEGQKITWLTPHAIQQVFTNDVDFGVLLTFLEFYETLLAFINFKLYHSLNVKYPPILDSRLEALAADLYALSRYIDASSRGMAVEPKVDASFSSQSNDREESELRLAQLQHQLPSSEPGALMHLVADNNKEVEEDEETRVCKSLFKDLKFFLSREVPRESLQLVITAFGGMVSWEGEGAPFKEDDESITHHIIDKPSAGHLYLSRVYVQPQWIYDCVNARIILPTEKYLVGRIPPPHLSPFVDNEAEGYVPDYAETIKRLQAAARNEVLPLPGVGKEDLEDPQNLLYAGVMSRAEEAEAAKNKKKMAAQEKQYHEELKMEINGSKDVVAPVLAEGEGEESVPDAMQIAQEDADMPKVLMSRKKRKLYDAMKISQSRKRSGVEIIEQRKKRLNDTQPSS
